Here are results for one sequence from publication PMC12358912.

Chains of the proteins cited; added tags and fusions are not shown. Chains listed by the source or under a name are the forms on record and can include a tag or linker.
STAG1-cohesin (co-purified) (human), one chain, as listed by the source, chain 2 of 4: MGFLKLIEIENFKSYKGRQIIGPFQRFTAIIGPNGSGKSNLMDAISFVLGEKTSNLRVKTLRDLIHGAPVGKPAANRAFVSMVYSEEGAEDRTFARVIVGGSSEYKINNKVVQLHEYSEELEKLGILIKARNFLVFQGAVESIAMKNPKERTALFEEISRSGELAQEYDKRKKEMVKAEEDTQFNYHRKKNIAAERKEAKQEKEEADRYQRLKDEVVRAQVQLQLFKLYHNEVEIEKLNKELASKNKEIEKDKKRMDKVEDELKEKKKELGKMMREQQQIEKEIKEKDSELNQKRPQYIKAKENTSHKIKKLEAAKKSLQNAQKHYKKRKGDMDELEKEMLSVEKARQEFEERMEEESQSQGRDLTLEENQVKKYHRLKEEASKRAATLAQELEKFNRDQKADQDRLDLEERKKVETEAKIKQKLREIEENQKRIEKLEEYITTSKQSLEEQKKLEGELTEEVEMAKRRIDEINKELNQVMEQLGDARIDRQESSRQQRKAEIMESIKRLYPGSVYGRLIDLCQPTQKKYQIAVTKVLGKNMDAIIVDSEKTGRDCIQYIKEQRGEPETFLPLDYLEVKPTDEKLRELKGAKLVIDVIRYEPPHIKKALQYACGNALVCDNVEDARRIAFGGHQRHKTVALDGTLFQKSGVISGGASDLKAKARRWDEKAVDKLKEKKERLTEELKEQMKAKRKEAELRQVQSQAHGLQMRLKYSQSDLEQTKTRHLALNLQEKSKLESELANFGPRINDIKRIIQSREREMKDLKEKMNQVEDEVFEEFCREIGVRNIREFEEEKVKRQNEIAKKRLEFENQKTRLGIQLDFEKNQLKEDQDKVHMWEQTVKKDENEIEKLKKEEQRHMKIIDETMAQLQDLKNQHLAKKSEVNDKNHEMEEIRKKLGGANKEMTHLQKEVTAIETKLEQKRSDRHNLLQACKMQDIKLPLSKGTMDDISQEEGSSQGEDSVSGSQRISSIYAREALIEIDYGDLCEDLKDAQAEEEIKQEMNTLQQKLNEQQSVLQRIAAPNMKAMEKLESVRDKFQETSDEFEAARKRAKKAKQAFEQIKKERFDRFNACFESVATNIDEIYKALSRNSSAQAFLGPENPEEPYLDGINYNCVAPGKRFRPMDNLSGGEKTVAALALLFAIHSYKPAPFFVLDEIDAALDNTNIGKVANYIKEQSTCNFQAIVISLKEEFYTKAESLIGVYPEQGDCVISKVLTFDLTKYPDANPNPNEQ
STAG1-cohesin (co-purified) (human), one chain, as listed by the source, chain 1 of 4: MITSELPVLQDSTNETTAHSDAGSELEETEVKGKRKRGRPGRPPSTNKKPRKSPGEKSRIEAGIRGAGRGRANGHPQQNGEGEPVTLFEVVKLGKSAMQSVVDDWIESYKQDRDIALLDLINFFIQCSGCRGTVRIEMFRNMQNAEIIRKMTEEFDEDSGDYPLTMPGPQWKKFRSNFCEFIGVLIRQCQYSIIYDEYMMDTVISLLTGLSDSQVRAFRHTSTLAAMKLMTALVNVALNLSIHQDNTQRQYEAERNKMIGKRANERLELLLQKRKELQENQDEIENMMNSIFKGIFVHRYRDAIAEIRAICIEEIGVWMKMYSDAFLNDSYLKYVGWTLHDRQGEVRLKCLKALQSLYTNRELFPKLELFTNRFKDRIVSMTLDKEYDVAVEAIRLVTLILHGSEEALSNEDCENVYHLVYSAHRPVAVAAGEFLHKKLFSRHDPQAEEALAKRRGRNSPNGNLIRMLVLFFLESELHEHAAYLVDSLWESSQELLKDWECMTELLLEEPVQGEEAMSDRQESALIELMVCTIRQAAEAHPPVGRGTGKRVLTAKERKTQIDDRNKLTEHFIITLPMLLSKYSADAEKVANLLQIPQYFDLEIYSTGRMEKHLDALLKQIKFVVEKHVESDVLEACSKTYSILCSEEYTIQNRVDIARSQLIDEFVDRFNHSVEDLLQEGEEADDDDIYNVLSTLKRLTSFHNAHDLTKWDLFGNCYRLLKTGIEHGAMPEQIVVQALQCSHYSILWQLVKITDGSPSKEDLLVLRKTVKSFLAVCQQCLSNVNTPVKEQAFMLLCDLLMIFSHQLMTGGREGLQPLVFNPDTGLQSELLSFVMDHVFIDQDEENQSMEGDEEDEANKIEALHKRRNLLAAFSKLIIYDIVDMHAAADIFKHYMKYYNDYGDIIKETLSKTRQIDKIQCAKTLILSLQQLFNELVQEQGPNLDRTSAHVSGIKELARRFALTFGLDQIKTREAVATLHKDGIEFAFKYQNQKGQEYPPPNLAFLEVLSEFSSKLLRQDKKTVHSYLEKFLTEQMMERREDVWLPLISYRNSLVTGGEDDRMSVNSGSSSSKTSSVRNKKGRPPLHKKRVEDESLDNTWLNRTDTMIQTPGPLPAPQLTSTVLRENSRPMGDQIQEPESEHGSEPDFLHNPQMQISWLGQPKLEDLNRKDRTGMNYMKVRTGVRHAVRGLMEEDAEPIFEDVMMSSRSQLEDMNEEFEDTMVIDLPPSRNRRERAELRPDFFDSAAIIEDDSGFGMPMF
STAG1-cohesin (co-purified) (human), one chain, as listed by the source, chain 3 of 4: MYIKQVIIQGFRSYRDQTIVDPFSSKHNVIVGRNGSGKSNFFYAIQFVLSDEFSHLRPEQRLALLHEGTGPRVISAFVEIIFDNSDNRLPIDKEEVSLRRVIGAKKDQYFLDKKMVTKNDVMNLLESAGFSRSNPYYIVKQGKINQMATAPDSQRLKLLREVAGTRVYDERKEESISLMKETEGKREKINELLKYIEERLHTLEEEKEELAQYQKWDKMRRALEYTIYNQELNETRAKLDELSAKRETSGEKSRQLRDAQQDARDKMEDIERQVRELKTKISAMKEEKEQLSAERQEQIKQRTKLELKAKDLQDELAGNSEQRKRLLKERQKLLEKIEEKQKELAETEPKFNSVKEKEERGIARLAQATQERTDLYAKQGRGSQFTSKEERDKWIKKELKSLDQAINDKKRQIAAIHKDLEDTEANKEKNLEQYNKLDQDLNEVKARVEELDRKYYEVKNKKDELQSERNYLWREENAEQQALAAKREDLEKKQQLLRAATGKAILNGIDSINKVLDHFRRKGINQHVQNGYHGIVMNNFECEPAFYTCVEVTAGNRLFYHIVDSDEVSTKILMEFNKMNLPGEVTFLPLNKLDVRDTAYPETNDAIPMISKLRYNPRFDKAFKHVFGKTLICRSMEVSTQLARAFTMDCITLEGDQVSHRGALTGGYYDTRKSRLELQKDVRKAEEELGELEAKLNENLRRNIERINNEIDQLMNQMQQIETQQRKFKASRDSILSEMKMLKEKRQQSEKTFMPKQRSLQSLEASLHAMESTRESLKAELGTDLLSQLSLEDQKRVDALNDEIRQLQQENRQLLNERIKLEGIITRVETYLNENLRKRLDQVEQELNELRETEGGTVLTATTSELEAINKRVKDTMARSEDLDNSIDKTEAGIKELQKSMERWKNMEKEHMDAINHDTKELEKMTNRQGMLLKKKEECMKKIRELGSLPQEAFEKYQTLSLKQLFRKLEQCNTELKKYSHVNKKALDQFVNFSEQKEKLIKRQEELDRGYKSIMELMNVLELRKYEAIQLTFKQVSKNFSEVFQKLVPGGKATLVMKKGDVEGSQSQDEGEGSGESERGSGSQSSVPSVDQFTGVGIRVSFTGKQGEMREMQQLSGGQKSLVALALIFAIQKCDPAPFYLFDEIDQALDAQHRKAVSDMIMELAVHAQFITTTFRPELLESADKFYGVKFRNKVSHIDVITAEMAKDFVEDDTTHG
STAG1-cohesin (co-purified) (human), one chain, as listed by the source, chain 4 of 4: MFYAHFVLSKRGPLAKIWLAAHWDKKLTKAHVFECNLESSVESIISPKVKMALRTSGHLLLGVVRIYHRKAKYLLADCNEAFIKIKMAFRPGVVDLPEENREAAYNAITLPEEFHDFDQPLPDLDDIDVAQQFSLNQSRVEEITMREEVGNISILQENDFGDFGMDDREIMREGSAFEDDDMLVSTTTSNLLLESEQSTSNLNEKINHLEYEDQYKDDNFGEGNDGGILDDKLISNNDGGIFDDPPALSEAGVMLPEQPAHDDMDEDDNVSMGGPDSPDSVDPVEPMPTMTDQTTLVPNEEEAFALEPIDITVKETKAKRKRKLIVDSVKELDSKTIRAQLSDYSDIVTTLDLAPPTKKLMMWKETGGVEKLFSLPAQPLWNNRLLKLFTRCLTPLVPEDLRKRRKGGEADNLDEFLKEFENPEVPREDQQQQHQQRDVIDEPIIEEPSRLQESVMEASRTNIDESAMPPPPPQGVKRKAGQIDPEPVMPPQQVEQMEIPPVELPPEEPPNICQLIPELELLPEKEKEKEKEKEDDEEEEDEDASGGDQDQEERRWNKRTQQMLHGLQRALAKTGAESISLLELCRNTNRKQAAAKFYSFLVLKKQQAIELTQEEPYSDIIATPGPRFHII

For some of these results: Negatives hold for the conditions tested. For some of these results: Construct, isoform or probe ends are uncertain for at least one entry.

What all share (experiment): mass photometry
Data set [1] relates to STAG1-cohesin (co-purified) (human). The conditions noted are these: circular DNA preferred over linear, typically 150 nM protein + 150 nM DNA, then diluted (10-fold for NIPBL), phosphate buffer (HEPES for MC604 repeat), recombinant protein, protein details: His, FLAG.
The test system of data set [2] is cohesin Trimer (SMC1/SMC3/SCC1) (human). To be noted: no nucleotide, beyond detection limit, typically 150 nM protein + 150 nM DNA, then diluted (10-fold for NIPBL), phosphate buffer (HEPES for MC604 repeat), recombinant protein, protein details: SCC1 Halo-His14 (TEV sites within SCC1), FLAG.
The subject of data set [3] is cohesin Trimer (SMC1/SMC3/SCC1) + STAG1 + NIPBL. To be noted: 150 nM each, no unbound holoenzyme, independent of ATP or ATPgS, typically 150 nM protein + 150 nM DNA, then diluted (10-fold for NIPBL), phosphate buffer (HEPES for MC604 repeat), recombinant protein.
Data set [4] deals with ΔN-NIPBL del22-1040 (human) (UniProt Q6KC79). The conditions noted are these: 150 nM each, no complex, Kd micromolar or higher, typically 150 nM protein + 150 nM DNA, then diluted (10-fold for NIPBL), phosphate buffer (HEPES for MC604 repeat), recombinant protein, residues 1-2804, protein details: His, Strep.

“CATATGTGCAGTCCCCCCATAAAAAAACCCGCCGAAGCGGGTTTTTACGTTATTTGCGGATTTTAATTAACTAGTTCTAGAGCTCACGTGCAGCTGTCGACGGTACCTGCAGGCCGGCCAGTACTGGGCCCCAACAGATAAAACGAAAGGCCCAGTCTTTCGACTGAGCCTTTCGTTTTATTGGGCCCCCTTGGTCAAATTGGGTATACCCATTTGGGCCTGGTCTGGCCGGCATGGCGCATTACAGCGGTACGCAATTTAAATGCGCCTAGCGCATTTTCCCGACCTTAATGCGCCTCGCG (double strand) [MC302 supercoiled minicircle]”: the binding result is listed as “binds” in data set [1], “binds” in data set [3] and “no binding” in data set [4]. The Kd in data set [2] is over 2000 nM.

A word on the Kd: it is a measure of binding affinity in units of concentration.
